Among the data in publication PMC6787490 are binding values, retold here.

No constants are given. Whether binding was seen depends on the method and setting. In cells and extracts the contact can be indirect.

In this test the target is T1, Nuclear cap-binding protein 2 (human (endogenous in H1299)) (UniProt P52298).
T1 sequence: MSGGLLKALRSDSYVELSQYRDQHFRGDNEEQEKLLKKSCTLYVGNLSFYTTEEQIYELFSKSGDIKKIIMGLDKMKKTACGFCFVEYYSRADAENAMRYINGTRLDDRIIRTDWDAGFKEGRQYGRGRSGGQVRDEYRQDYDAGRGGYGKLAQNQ
The test is described as follows: co-IP; H1299 cells lysed in RIP lysis buffer (RBP immunoprecipitation kit, EMD Millipore); lysates immunoprecipitated with antibodies against NCBP1, NCBP2 or NCBP3 (Abcam) and protein A/G magnetic beads overnight at 4°C; precipitates immunoblotted for NCBP1, NCBP2 and NCBP3. On the technique in general: In western blotting, separated proteins are transferred to a membrane and probed.

B1: Nuclear cap-binding protein 3 (protein, UniProt Q53F19 1-620)
chain: MAAVRGLRVSVKAEAPAGPALGLPSPEAESGVDRGEPEPMEVEEGELEIVPVRRSLKELIPDTSRRYENKAGSFITGIDVTSKEAIEKKEQRAKRFHFRSEVNLAQRNVALDRDMMKKAIPKVRLETIYICGVDEMSTQDVFSYFKEYPPAHIEWLDDTSCNVVWLDEMTATRALINMSSLPAQDKIRSRDASEDKSAEKRKKDKQEDSSDDDEAEEGEVEDENSSDVELDTLSQVEEESLLRNDLRPANKLAKGNRLFMRFATKDDKKELGAARRSQYYMKYGNPNYGGMKGILSNSWKRRYHSRRIQRDVIKKRALIGDDVGLTSYKHRHSGLVNVPEEPIEEEEEEEEEEEEEEEEDQDMDADDRVVVEYHEELPALKQPRERSASRRSSASSSDSDEMDYDLELKMISTPSPKKSMKMTMYADEVESQLKNIRNSMRADSVSSSNIKNRIGNKLPPEKFADVRHLLDEKRQHSRPRPPVSSTKSDIRQRLGKRPHSPEKAFSSNPVVRREPSSDVHSRLGVPRQDSKGLYADTREKKSGNLWTRLGSAPKTKEKNTKKVDHRAPGAEEDDSELQRAWGALIKEKEQSRQKKSRLDNLPSLQIEVSRESSSGSEAES
As to B1, the binding entry is reported as “no binding”.
